Experimental data from publication doi:10.1101/2021.05.13.443803.
No constants are given. Whether binding was seen depends on the method and setting. In cells and extracts the contact can be indirect. Some results given as binding are weak or reduced against the parent protein; the word gives no strength.

By UniProt entry, the sequences of proteins in these tests, tags left out.
UniProt P03071: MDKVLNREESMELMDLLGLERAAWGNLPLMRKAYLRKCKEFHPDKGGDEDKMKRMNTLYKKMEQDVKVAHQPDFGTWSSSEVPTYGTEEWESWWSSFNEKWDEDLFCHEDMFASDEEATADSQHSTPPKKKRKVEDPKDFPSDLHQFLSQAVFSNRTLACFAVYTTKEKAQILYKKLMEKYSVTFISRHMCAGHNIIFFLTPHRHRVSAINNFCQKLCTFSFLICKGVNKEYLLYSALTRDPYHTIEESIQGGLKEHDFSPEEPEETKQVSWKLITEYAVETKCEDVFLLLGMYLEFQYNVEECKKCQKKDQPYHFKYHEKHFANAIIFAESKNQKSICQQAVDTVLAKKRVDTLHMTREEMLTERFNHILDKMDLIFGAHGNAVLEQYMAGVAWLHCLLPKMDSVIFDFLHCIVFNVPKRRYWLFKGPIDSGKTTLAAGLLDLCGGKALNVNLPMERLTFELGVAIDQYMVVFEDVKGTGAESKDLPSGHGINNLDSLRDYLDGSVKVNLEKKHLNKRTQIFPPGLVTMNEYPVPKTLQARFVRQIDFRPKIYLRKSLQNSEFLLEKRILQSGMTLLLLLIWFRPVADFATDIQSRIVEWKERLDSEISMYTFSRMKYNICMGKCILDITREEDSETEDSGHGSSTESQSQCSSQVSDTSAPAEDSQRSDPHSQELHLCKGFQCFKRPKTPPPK
UniProt Q06609: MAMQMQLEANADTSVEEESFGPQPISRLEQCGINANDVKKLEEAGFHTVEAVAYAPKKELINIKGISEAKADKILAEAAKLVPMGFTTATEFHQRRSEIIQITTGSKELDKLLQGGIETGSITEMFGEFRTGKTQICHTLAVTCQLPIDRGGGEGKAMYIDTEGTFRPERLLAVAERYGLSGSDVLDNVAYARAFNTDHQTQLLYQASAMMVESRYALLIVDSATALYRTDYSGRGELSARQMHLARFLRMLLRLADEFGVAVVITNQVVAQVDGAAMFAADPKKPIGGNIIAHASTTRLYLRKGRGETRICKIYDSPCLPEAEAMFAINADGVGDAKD

Molecular target: BK polyomavirus (BKPyV) Large T antigen (BK polyomavirus (Dunlop strain)) (UniProt P03071)
Experiment: proximity ligation

Substance: Rad51 (from UniProt Q06609 1-339)
- binding: binds
